PubChem BioAssay AID504764, Drosophila RNAi Screening Center – 2011
The deposit covers about 22,000 reagents; below is a random part of those with a known target gene and a result. Over the whole deposit, 403 (1.9%) were called active. 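Unnormalised raw counts per well; ratio z-scores behind the hit calls and whether each hit raises or lowers signal are not deposited.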 Reagents against one gene are numbered here. Names joined by + are all predicted targets of the reagent. The record does not give: the amount of reagent.

Purpose: 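Genome-wide screen for regulators of Notch-driven gene expression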 (primary screen)
Cells: Drosophila Kc167 cells
Reagents: long dsRNA against Drosophila genes
Timing: about 5 days (4 days dsRNA, then 24 h after transfection)
Conditions: transfection of constitutively active membrane-tethered Notch lacking the extracellular domain, read 24 h later
Measurement: 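Firefly luciferase from an E(spl)m3 reporter with active Notch, plus control-promoter and uninduced reporter wells for normalisation; unnormalised counts, duplicate wells a and b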
Reading the numbers: induced reporter light, run 1, well a and induced reporter light, run 1, well b: higher = more light from the Notch target reporter with active Notch; control promoter light, run 1, well a and control promoter light, run 1, well b: higher = more light from the viral control promoter (cell number, transfection, viability); uninduced reporter light, run 1, well a: higher = more light from the Notch target reporter without active Notch
Rule for the call: 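Wells with low control signal or poorly matching duplicates excluded; duplicates averaged; per source plate, z beyond ±2 for induced/control log2 ratio or beyond ±1.8 for induced/uninduced marks a hit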
Calls: active = modifier hit (raised or lowered Notch signal); inactive = not a hit

no.	Gene	dsRNA no.	induced reporter light, run 1, well a	induced reporter light, run 1, well b	control promoter light, run 1, well a	control promoter light, run 1, well b	uninduced reporter light, run 1, well a	Outcome
1	CG11756	1	1.11e5	1.08e5	1.93e5	2.41e5	8525	inactive
2	CG5532	1	2.46e5	1.88e5	3.54e5	3.51e5	15555	inactive
3	CG12817	1	92445	81570	76725	51255	8045	inactive
4	CG32284	1	2.44e5	2.06e5	2.08e5	1.96e5	16765	inactive
5	PIG-Wb	1	1.42e5	1.16e5	2.23e5	1.53e5	5442	inactive
6	CG31229	1	54805	55760	55815	62350	6335	inactive
7	BTBD9	1	1.42e5	1.20e5	3.03e5	2.95e5	9470	inactive
8	CG17168	1	1.00e5	83560	1.09e5	1.15e5	8895	inactive
9	prt	1	1.55e5	1.68e5	1.86e5	1.65e5	13995	inactive
10	Aldh-III	1	1.71e5	1.61e5	1.48e5	1.57e5	13380	inactive
11	CG10265	1	1.63e5	1.87e5	1.53e5	2.05e5	13285	inactive
12	CG8089	1	1.05e5	1.09e5	1.29e5	1.18e5	9455	inactive
13	CG1986	1	1.22e5	1.26e5	2.79e5	2.31e5	8632	inactive
14	CG3546	1	1.71e5	1.63e5	2.93e5	2.98e5	14720	inactive
15	Shal	1	2.41e5	2.46e5	3.15e5	2.61e5	19325	inactive
16	Shal	2	2.23e5	1.59e5	1.25e5	1.11e5	11875	inactive
17	Not3	1	79005	70315	92220	1.03e5	7900	active
18	Cngl	1	91805	99765	1.42e5	1.81e5	10195	inactive
19	eIF3b	1	7255	5205	7245	6625	1495	inactive
20	CG31898	1	1.36e5	1.12e5	1.77e5	1.98e5	13145	inactive
21	gig	1	1.86e5	1.97e5	2.75e5	2.50e5	13425	inactive
22	Ugalt	1	1.21e5	1.29e5	2.10e5	2.10e5	10565	inactive
23	CG13841	1	1.44e5	1.29e5	1.62e5	1.41e5	8820	inactive
24	a10	1	1.52e5	2.30e5	2.44e5	1.86e5	9110	inactive
25	prod	1	1.30e5	93155	1.94e5	1.86e5	9435	inactive
26	TpnC25D	1	1.56e5	1.27e5	1.33e5	1.40e5	7915	inactive
27	Jhbp15	1	2.15e5	1.99e5	2.22e5	2.22e5	15065	inactive
28	Nf-YB	1	61450	43410	46990	60375	3170	inactive
29	CG14410	1	96550	93890	1.31e5	1.38e5	13570	inactive
30	CG2611	1	1.61e5	1.60e5	1.41e5	1.81e5	12075	inactive
31	CG8243	1	1.70e5	1.51e5	2.14e5	2.25e5	15115	inactive
32	CG30109 + CG30108	1	90755	1.09e5	1.21e5	1.21e5	8685	inactive
33	cup	1	2.92e5	2.43e5	2.36e5	2.95e5	21560	inactive
34	Ser6	1	83550	1.14e5	79535	1.22e5	8500	inactive
35	Dbp73D	1	1.51e5	1.44e5	1.12e5	1.52e5	12565	inactive
36	Pep	1	1.36e5	1.60e5	86200	98025	11085	inactive
37	Pop1	1	2.40e5	2.12e5	3.19e5	3.44e5	15340	inactive
38	CG13202	1	1.02e5	93685	1.23e5	1.15e5	9960	inactive
39	CG13733	1	2.21e5	2.01e5	2.67e5	2.03e5	10192	inactive
40	CG13248	1	1.70e5	1.25e5	1.04e5	1.03e5	8745	inactive
41	Ctns	1	1.41e5	1.64e5	2.13e5	2.14e5	11550	inactive
42	CG14777	1	1.25e5	1.12e5	1.92e5	1.96e5	7705	inactive
43	key	1	1.48e5	2.01e5	1.18e5	1.26e5	11755	inactive
44	Lam	1	73965	75295	73095	74870	4080	inactive
45	CG15260	1	1.58e5	1.63e5	1.45e5	1.66e5	13332	inactive
46	SiaT	1	1.26e5	1.24e5	1.42e5	1.42e5	9485	inactive
47	CG42322	1	1.41e5	1.56e5	2.28e5	1.91e5	15510	inactive
48	CG42322	2	1.54e5	1.44e5	1.99e5	1.74e5	10745	inactive
49	CG42322	3	59020	62690	47535	48450	8955	inactive
50	RpLP0-like	1	1.41e5	1.18e5	1.16e5	1.19e5	10660	inactive
51	CG15572	1	1.36e5	1.04e5	2.19e5	2.44e5	10560	inactive
52	5-HT2A	1	1.31e5	1.39e5	1.15e5	1.32e5	10192	inactive
53	CG33992 (retired record) + CG43755	1	99455	76140	1.16e5	1.16e5	6355	inactive
54	CG9525	1	1.16e5	1.37e5	64070	80675	15992	inactive
55	SP	1	1.05e5	90200	1.55e5	1.54e5	7755	inactive
56	mRNA-cap	1	62620	58135	72535	55995	11460	inactive
57	l(3)07882	1	1.76e5	1.78e5	1.74e5	1.64e5	14670	inactive
58	Hen1	1	1.25e5	1.10e5	1.08e5	1.00e5	8675	inactive
59	Hen1	2	1.09e5	1.19e5	1.27e5	1.47e5	8740	inactive
60	CG9265	1	38330	29310	34575	33150	2735	inactive
61	CG9265	2	61310	36240	38015	67145	2380	inactive
62	CG3491	1	1.39e5	1.32e5	1.53e5	1.44e5	9520	inactive
63	btd	1	51875	60230	1.09e5	1.16e5	2915	inactive
64	CG5504	1	1.63e5	1.91e5	1.66e5	1.88e5	15540	inactive
